Reference: patent publication US10414725B2, “Pyrrolomycins and methods of using the same” (priority 2015, dated 2019)

Tested on: Bacillus anthracis

Compound: O=C(O)c1cn(C2CC2)c2cc(N3CCNCC3)c(F)cc2c1=O [ciprofloxacin]
- reduction of BA culture viability: fails to kill BA
